Laboratory results reported in patent publication US20060153906A1, “Pharmaceutical product for endonasal administration for treating central nervous system disease and disorders” (priority 2002, published 2006).
At least one structure is not confirmed: it was looked up by name or label, or the drawing left a doubt.

System: white male rats
Assay: Tail flick reflex method, analgesic activity
Format: in vivo, rat
Conditions: 0.05 mg/kg, one hour after administering

Structure (SMILES): C[C@@H](NC(=O)[C@@H](N)Cc1ccc(O)cc1)C(=O)N[C@@H](Cc1ccccc1)C(=O)NCC(=O)N[C@@H](Cc1ccc(O)cc1)C(=O)N1CCC[C@H]1C(=O)N[C@@H](CO)C(N)=O [dermorphin, DAFGYPS-NH2]
- Analgesic effect (in % for control) (endonasal, 20 μl): 26.2 ± 6.1 *) %
- Analgesic effect (in % for control) (intraperitoneal): 12.5 ± 4.2%
